Assay results taken from PubChem BioAssay AID2685 (National Center for Advancing Translational Sciences (NCATS), 2010).
Some of the results follow. The main result of the screen is listed elsewhere. These columns were measured beside it and carry no call. Compounds called inactive in the main read-out are mostly missing here. Potencies come from curve fits of mixed quality, noted in brackets.

Test: qHTS Assay for Lipid Storage Modulators in Drosophila S3 Cells;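 as to cell number change: cells counted by Cell Tracker Red CMTPX staining in the red channel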
Details: BODIPY lipid droplet fluorescence, 18-24 h; for cell number change: measured here: cell count max response, cells fed with added oleic acid
Method in brief: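 Drosophila S3 cells got compounds at several concentrations plus oleic acid (400 uM solution). Laser-scanning cytometry with 488 nm excitation read lipid droplets at 500-530 nm and cells at 575-640 nm. Percent activity was relative to 20 uM Triacsin C.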

[1] = measured here: lipid fluorescence (Fed channel) AC50, cells fed with added oleic acid
[2] = measured here: cell number channel AC50, cells fed with added oleic acid

Row | SMILES | cell number change [%] | AC50 [1] | AC50 [2]
1 | CCOc1ccc(NS(=O)(=O)c2ccc3[nH]cc(C(=O)NC(C)CC)c(=O)c3c2)cc1 (configuration not stated) | -15.6 | – | –
2 | CN1CCN(c2ccccc2NC(=O)c2ccc(N3CCCCC3)c([N+](=O)[O-])c2)CC1 | 4.62 | – | –
3 | O=S(=O)(c1ccc2nc(Cc3cccc(C(F)(F)F)c3)[nH]c2c1)N1CCOCC1 | -11.9 | 13 µM [falling, single point] | –
4 | COc1ccc(S(=O)(=O)N2CCCCCC2)cc1C(=O)Nc1cccc(C)n1 | -5.09 | 35.5 µM [falling, single point] | –
5 | O=C(CCS(=O)(=O)c1ccccc1)N1CCN(c2ccc(F)cc2)CC1 | 2.6 | 0.651 µM [rising, partial curve, poor fit] | –
6 | CCN(CC(=O)Nc1ccc(OC)c(OC)c1)CC(=O)Nc1ccccc1C(F)(F)F | 0.709 | – | –
7 | COc1cc(N2CCCC2)c(OC)cc1/C=C1/NC(=S)NC1=O | -99 | 25.9 µM [falling, partial curve, poor fit] | 29.1 µM [falling, single point]
8 | CC(C)OCCCNC(=O)CCC(=O)NNc1nc2ccccc2c2nc(-c3ccccc3)nn12 | – | 0.00461 µM [falling, full curve, poor fit] | –
9 | CC1CCCCC1NC(=O)C1CCN(S(=O)(=O)c2cccc3nonc23)CC1 (configuration not stated) | 29.7 | 9.2 µM [rising, partial curve] | –
10 | CC1CC(=O)Nc2ccccc2S1(=O)=O (configuration not stated) | -67.5 | – | 11.6 µM [falling, partial curve]
11 | CCOC(=O)c1cnn(-c2cc(C(C)(C)C)nc3c(-c4ccccc4)c(C)nn23)c1N | – | 0.58 µM [rising, full curve] | 5.8 µM [rising, single point]
12 | CCOC(=O)[C@H]1[C@H]2COc3ccc(Br)cc3[C@@H]2N2C(=O)CN(Cc3ccc(OC)cc3)C(=O)[C@@]12C | -37.4 | – | 29.1 µM [falling, single point]
13 | O=C1c2ccccc2C(=O)N1OS(=O)(=O)c1ccc(F)cc1 | -8.66 | 2.91 µM [falling, partial curve, poor fit] | –
14 | COCCCNC(=O)CN(Cc1ccc(Cl)cc1)S(C)(=O)=O | -9.31 | 0.0058 µM [falling, full curve, poor fit] | –
15 | N#Cc1c(C(F)(F)F)cc(-c2ccco2)nc1SCc1ccncc1 | -5.29 | – | –
16 | CSCCC(NC(=O)c1ccco1)C(=O)OCc1cc([N+](=O)[O-])cc2c1OCOC2 (configuration not stated) | -1.9 | 5.8 µM [falling, partial curve, poor fit] | –
17 | O=[N+]([O-])c1ccc(Nc2ccccc2O)c2nonc12 | 9.47 | 23.1 µM [falling, partial curve] | –
18 | CC1CC(C)CN(C(=O)Cn2nnc(-c3ccc(Br)cc3)n2)C1 (configuration not stated) | -2.56 | – | –
19 | Cc1c(C)c2cccnc2c2ncccc12 | -14.7 | 0.461 µM [falling, partial curve] | –
20 | Cc1cc(=O)n2nc(N3CCC(C(=O)NCc4ccccc4F)CC3)sc2n1 | – | 5.17 µM [rising, single point] | –
21 | CN(C)C(=O)c1sccc1Oc1ccc(F)cc1[N+](=O)[O-] | -9.09 | – | –

Row | SMILES | cell number change [%] | AC50 [1] | AC50 [2]
22 | COc1ccc(-c2cn[nH]c2C)cc1OC | -1.84 | 29.1 µM [rising, single point] | –
23 | COc1ccc(C(=O)N/N=C/c2ccc(OC)c(CN3CCCc4ccccc43)c2)cc1 | -6.48 | 0.291 µM [rising, partial curve] | –
24 | Cc1ccccc1NC(=O)NC1(C(=O)NCC2CCCO2)CCCCC1 (configuration not stated) | 9.01 | – | –
25 | CCOC(=O)N1CCN(C(=O)c2ccc(S(=O)(=O)NCc3ccco3)cc2)CC1 | -2.4 | 0.00461 µM [falling, full curve, poor fit] | 0.0058 µM [falling, full curve, poor fit]
26 | C=C(C)C1CC=C(C)/C(=N/NC(=O)COc2ccccc2C)C1 (configuration not stated) | 4.59 | 2.06 µM [rising, single point] | –
27 | CCOC(=O)C1=NNC2(c3ccc(Cl)cc3)C(=O)N(c3ccc(C)cc3)C(=O)C12 (configuration not stated) | 30 | 0.116 µM [falling, full curve, poor fit] | –
28 | Cc1c(NC(=O)c2ccc3ncccc3c2)c(=O)n(-c2ccccc2)n1C | 18.7 | 6.51 µM [falling, single point] | –
29 | CCOc1ccc(C(=O)N2CCN(c3ccccn3)CC2)cc1OCC | -1.35 | – | –
30 | COc1ccc(C(=O)NCC(=O)OCC(=O)N2CCc3ccccc32)cc1 | 2.44 | 0.461 µM [falling, single point] | –
31 | CCOC(=O)c1nc2c(ccc3ccccc32)cc1C | 14.2 | – | –
32 | NC(N)=Nc1nc(-c2ccccc2)c2cc(F)ccc2n1 | 41.9 | – | 2.31 µM [rising, full curve]
33 | Cn1c(=O)c2c(ncn2CC(=O)OCC(=O)NCc2ccccc2Cl)n(C)c1=O | -18.6 | 0.13 µM [falling, full curve, poor fit] | –
34 | Cc1ccc(S(=O)(=O)N(C)C)cc1NC(=O)COC(=O)CCCOc1ccccc1 | 9.26 | 22.4 µM [rising, single point] | –
35 | CC(C)CC(=O)NC(=S)Nc1ccc(N2CCN(C(=O)c3cccs3)CC2)cc1 | -28.7 | – | –
36 | Cc1ccc(N2C(=O)c3n[nH]c(C)c3C2c2ccco2)cc1 (configuration not stated) | – | – | 6.51 µM [rising, single point]
37 | NS(=O)(=O)c1ccc(NC(=O)COC(=O)c2ccco2)cc1 | -2.03 | – | –
38 | Cc1ccc(C)c(S(=O)(=O)N2CCCOC2CNC(=O)C(=O)NC2CCCCC2)c1 (configuration not stated) | 14 | 0.058 µM [falling, full curve, poor fit] | –
39 | COc1ccc(NC(=O)c2cc3ccc(O)cc3o/c2=N\O)cc1 | -32 | 14.6 µM [falling, partial curve] | 16.4 µM [falling, single point]
40 | O=C(Nc1ccc2c(c1)OCCO2)C1CCCC1 | -5.84 | – | 1.84 µM [rising, partial curve, poor fit]
41 | COc1ccc(NC(=O)CCCC(=O)c2ccccc2)cc1 | 9.33 | – | –
42 | CC(C(=O)OCC(=O)N(C)C1(C#N)CCCCC1)N1C(=O)c2ccccc2C1=O (configuration not stated) | 9.73 | 1.64 µM [falling, partial curve] | –
